Measured values from US20220153834A1.
No constants are given. Whether binding was seen depends on the method and setting. Some binding calls cover weakened binding; strength is not graded here.

Chains of the proteins cited; added tags and fusions are not shown. Residues count along the entry.
UniProt P98066, residues 18-277: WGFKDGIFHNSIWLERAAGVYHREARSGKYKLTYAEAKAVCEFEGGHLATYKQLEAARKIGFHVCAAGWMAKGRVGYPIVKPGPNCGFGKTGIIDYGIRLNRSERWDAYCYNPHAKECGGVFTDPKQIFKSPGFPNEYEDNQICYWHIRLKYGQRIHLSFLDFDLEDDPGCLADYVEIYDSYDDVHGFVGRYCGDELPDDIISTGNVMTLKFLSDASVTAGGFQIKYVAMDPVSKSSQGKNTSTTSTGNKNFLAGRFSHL
UniProt O08859, residues 18-275: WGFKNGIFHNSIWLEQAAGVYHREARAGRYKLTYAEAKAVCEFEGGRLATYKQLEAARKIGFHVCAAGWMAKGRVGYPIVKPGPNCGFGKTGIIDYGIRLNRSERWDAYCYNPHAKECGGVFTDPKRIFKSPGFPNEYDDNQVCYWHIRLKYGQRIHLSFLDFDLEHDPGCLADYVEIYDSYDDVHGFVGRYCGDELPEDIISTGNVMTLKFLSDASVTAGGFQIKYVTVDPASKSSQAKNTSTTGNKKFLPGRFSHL

How the values were obtained:
[1] = biological target: Recombinant human TSG-6 (R&D Biosystems, catalog #2104-TS) (human) (UniProt P98066); assay: ELISA of hybridoma supernatants on recombinant human TSG-6
[2] = biological target: Recombinant mouse TSG-6 (R&D Biosystems, catalog #2326-TS) (mouse) (UniProt O08859); assay: hybridoma raised against mouse TSG-6; clone selection by ELISA

B1: ID12 (antibody, V domains shown)
VH: QVQLQQSGPELVKPGASVKLSCKTSGYTFTSYDINWVKQRPGQGLEWIGWIYPSDGSTKFNEKFKGMATLTVDTSSSTAYMELHSLTSEDSTVYFCARGLWYYGGGVDYWGQGTSVTVSS
VL: DAVMTQTPLSLPVSLGDQASISCRSTQSLEDSNGNTYLNWYLQKPGQSPQLLIYRVSNRFSGVLDRFSGSGSGTDFTLKISRVEAEDLGVYFCLQVTHVPYTFGGGTKLEIKR
How did the binding [1] turn out when B1 was run?
Its binding is “binds”.

And the binding [2]?
Its binding is “binds”.
